Patent US20110258738A1
Results are given in words; binding and its absence hold for the method and conditions named. Some binding calls cover weakened binding; strength is not graded here.

Protein sequences, listed by entry. Tags and fused reporters are not part of them. Lines headed by an entry give the natural chain unless they say otherwise; changes in a name come on top.
UniProt Q9FR53: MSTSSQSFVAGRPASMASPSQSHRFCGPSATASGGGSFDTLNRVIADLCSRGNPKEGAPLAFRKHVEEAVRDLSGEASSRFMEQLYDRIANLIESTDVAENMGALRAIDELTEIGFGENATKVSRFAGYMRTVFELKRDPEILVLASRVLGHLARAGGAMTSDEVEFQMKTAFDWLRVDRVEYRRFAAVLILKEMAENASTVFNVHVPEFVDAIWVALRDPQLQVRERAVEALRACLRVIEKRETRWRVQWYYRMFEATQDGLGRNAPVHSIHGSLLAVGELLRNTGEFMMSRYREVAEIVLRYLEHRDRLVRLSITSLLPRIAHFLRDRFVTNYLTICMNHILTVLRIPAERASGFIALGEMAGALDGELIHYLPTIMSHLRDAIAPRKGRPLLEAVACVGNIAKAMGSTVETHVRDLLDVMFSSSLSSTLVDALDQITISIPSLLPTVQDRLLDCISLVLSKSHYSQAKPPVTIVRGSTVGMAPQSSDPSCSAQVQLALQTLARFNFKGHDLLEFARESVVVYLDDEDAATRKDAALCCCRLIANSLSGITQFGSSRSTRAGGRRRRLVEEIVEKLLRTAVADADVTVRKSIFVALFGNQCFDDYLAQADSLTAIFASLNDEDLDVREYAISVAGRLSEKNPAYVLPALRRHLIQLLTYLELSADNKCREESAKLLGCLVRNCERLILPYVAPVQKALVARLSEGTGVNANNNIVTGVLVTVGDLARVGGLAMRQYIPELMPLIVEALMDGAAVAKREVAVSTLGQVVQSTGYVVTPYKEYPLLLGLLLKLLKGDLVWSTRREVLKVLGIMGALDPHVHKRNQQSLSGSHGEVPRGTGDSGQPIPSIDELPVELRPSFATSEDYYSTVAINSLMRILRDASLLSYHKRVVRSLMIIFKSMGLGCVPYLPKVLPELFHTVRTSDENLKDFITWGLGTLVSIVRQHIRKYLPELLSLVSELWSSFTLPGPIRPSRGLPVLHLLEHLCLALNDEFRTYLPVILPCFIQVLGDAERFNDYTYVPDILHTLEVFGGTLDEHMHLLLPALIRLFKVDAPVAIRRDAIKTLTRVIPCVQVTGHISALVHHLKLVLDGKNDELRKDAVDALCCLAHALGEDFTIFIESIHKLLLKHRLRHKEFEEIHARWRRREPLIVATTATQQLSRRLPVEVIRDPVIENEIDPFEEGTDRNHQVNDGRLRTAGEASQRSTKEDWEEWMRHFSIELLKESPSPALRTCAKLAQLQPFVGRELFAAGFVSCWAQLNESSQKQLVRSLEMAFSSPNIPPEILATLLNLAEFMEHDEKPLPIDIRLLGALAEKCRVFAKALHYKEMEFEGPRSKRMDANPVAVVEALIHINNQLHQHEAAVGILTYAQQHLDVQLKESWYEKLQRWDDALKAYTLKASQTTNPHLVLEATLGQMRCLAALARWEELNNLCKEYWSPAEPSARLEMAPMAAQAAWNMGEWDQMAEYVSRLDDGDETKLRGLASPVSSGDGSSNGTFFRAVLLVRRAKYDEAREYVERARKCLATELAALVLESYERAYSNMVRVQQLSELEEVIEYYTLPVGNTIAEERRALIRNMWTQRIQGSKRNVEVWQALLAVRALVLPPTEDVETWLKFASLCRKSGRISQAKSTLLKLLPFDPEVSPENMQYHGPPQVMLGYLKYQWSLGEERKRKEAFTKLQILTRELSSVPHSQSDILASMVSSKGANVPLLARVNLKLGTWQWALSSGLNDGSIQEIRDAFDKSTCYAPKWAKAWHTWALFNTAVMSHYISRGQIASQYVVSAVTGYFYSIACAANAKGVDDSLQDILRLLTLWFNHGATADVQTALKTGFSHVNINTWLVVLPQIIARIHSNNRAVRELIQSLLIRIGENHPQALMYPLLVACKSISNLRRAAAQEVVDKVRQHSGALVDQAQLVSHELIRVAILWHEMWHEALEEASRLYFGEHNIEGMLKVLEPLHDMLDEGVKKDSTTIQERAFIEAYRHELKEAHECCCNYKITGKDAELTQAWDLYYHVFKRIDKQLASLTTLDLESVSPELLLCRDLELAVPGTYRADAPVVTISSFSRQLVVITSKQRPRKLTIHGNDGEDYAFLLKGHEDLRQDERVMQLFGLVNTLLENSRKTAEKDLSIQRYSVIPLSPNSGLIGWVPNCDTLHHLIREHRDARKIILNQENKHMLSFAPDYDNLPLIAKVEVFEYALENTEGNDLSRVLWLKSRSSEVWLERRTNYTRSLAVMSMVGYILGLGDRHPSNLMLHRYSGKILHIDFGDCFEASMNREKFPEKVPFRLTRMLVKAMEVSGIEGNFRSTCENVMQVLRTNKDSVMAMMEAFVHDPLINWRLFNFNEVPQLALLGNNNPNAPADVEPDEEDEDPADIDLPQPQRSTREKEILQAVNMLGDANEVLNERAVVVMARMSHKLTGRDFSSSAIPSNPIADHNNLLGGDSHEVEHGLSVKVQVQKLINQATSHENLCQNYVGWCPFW
UniProt Q9M2Z2: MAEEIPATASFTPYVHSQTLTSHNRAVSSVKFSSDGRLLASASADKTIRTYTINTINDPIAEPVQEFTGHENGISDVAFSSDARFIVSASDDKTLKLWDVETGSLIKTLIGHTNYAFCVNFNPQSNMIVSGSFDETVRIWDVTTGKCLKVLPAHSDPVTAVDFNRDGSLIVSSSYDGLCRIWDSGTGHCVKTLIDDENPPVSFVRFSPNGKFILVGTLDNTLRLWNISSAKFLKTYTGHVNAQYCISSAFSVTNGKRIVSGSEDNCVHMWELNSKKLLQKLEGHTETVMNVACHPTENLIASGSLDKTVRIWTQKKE

B1: AtTIP13 (protein)
chain: MALGDLMVSRFSQSSVSLVSNHRYDEDCVSSHDDGDSRRKDSEAKSSSSYGNGTTEGAATATSMAYLPQTIVLCELRHDASEASAPLGTSEIVLVPKWRLKERMKTGCVALVLCLNITVDPPDVIKISPCARIEAWIDPFSMAPPKALETIGKNLSTQYERWQPRARYKVQLDPTVDEVRKLCLTCRKYAKTERVLFHYNGHGVPKPTANGEIWVFNKSYTQYIPLPISELDSWLKTPSIYVFDCSAARMILNAFAELHDWGSSGSSGSSRDCILLAACDVHETLPQSVEFPADVFTSCLTTPIKMALKWFCRRSLLKEIIDESLIDRIPGRQNDRKTLLGELNWIFTAVTDTIAWNVLPHELFQRLFRQDLLVASLFRNFLLAERIMRSANCNPISHPMLPPTHQHHMWDAWDMAAEICLSQLPQLVLDPSTEFQPSPFFTEQLTAFEVWLDHGSEHKKPPEQLPIVLQVLLSQCHRFRALVLLGRFLDMGSWAVDLALSVGIFPYVLKLLQTTTNELRQILVFIWTKILALDKSCQIDLVKDGGHTYFIRFLDSSGAFPEQRAMAAFVLAVIVDGHRRGQEACLEANLIGVCLGHLEASRPSDPQPEPLFLQWLCLCLGKLWEDFMEAQIMGREANAFEKLAPLLSEPQPEVRAAAVFALGTLLDIGFDSNKSVVEDEFDDDEKIRAEDAIIKSLLDVVSDGSPLVRAEVAVALARFAFGHKQHLKLAAASYWKPQSSSLLTSLPSIAKFHDPGSATIVSLHMSPLTRASTDSQPVARESRISSSPLGSSGLMQGSPLSDDSSLHSDSGMMHDSVSNGAVHQPRLLDNAVYSQCVRAMFALAKDPSPRIASLGRRVLSIIGIEQVVAKPSKPTGRPGEAATTSHTPLAGLARSSSWFDMHAGNLPLSFRTPPVSPPRTNYLSGLRRVCSLEFRPHLLGSPDSGLADPLLGASGSERSLLPLSTIYGWSCGHFSKPLLGGADASQEIAAKREEKEKFALEHIAKCQHSSISKLNNNPIANWDTRFETGTKTALLHPFSPIVVAADENERIRVWNYEEATLLNGFDNHDFPDKGISKLCLINELDDSLLLVASCDGSVRIWKNYATKGKQKLVTGFSSIQGHKPGARDLNAVVDWQQQSGYLYASGETSTVTLWDLEKEQLVRSVPSESECGVTALSASQVHGGQLAAGFADGSLRLYDVRSPEPLVCATRPHQKVERVVGLSFQPGLDPAKVVSASQAGDIQFLDLRTTRDTYLTIDAHRGSLTALAVHRHAPIIASGSAKQLIKVFSLQGEQLGIIRYYPSFMAQKIGSVSCLTFHPYQVLLAAGAADSFVSIYTHDNSQAR
B2: AtTIP15 (protein)
chain: MTKRSKGANEDKLIETKSKNVSGKSQKQKKPVEAESLKEEDLLQASGTDSDYDGDSLPGSLNSDDFDSDFSDSEDDGTHEGTEDGDVEFSDDDDVLEHDGSIDNEDDDGSEHVGSDNNEEHGSDEDSERGEAVEESDSSEDEVPSRNTVGNVPLKWYEDEKHIGYDLTGKKITKKEKQDKLDSFLATIDDSKTWRKIYDEYNDEDVELTKEESKIVQRILKGEAPHADFDPYAPYVEWFKHDDAIHPLSSAPEPKRRFIPSKWEAKKVVKIVRAIRKGWIKFDKPEEEPNVYLLWGDDSTSDQKSKHLTYIPPPKLKLPGHDESYNPSLEYIPTEEEKASYELMFEEDRPKFIPTRFTSLRSIPAYENALKESFERCLDLYLCPRVRKKRINIDPESLKPKLPSRKDLRPYPNSCYLEYKGHTGAVTSISTDSSGEWIASGSTDGSVRMWEVETGRCLKVWQFDEAIMCVAWNPLSRLPVLAVAMGRDLFFLNTELGTDEEQEITKERLHSGNIPEPDASVAAIVTWLPDELYGGIKIRHFKSISSIDWHRKGDYLSTVMASGETRGVVLHQLSKQKTQRLPFKIRGLPVCTLFHPSLSYFFVATRKDVRVYNLLKPGEATKKLETGLREISSMAIHPGGDNLIVGSKEGKMCWFDMDLSSKPYKTLKNHPKDITNVAVHRSYPLFASCSEDSTAYVFHGMVYNDLNQNPLIVPLEILRGHSSKGGVLDCKFHPRQPWLFTAGADSIIKLYCH
B3: AtTIP16 (enzyme)
chain: MVGSLESDQTLSMATLIEKLDILSDDFDPTAVVTEPLPPPVTNGIGADKGGGGGEREMVLGRNIHTTSLAVTEPEVNDEFTGDKEAYMASVLARYRKTLVERTKNHLGYPYNLDFDYGALGQLQHFSINNLGDPFIESNYGVHSRPFEVGVLDWFARLWEIERDDYWGYITNCGTEGNLHGILVGREMFPDGILYASRESHYSVFKAARMYRMECEKVDTLMSGEIDCDDLRKKLLANKDKPAILNVNIGTTVKGAVDDLDLVIKTLEECGFSHDRFYIHCDGALFGLMMPFVKRAPKVTFNKPIGSVSVSGHKFVGCPMPCGVQITRMEHIKVLSSNVEYLASRDATIMGSRNGHAPLFLWYTLNRKGYKGFQKEVQKCLRNAHYLKDRLREAGISAMLNELSSTVVFERPKDEEFVRRWQLACQGDIAHVVVMPSVTIEKLDNFLKDLVKHRLIWYEDGSQPPCLASEVGTNNCICPAHK
B4: AtTIP2 (enzyme)
chain: MVSSQCSVANKNQTGKPFQKHLSLSISPPKSVLGDNLELQFSDVFGPMPEANSEEACDVAYDEPAVVYSRSHSLVGPSLVVSHSLKMNKLTLRETEDSVDLVECVEGESIKENDEFSGNDDTDSEKSPEEVSGVVGIEDFEVLKVVGQGAFGKVYQVRKKDTSEIYAMKVMRKDKIVEKNHAEYMKAERDILTKIDHPFIVQLKYSFQTKYRLYLVLDFINGGHLFFQLYHQGLFREDLARVYTAEIVSAVSHLHEKGIMHRDLKPENILMDVDGHVMLTDFGLAKEFEENTRSNSMCGTTEYMAPEIVRGKGHDKAADWWSVGILLYEMLTGKPPFLGSKGKIQQKIVKDKIKLPQFLSNEAHALLKGLLQKEPERRLGSGPSGAEEIKKHKWFKAINWKKLEAREVQPSFKPAVSGRQCIANFDKCWTDMSVLDSPASSPNSDAKANPFTNFTYVRPPHSFLHRTTSNL
B5: AtTIP28 (protein)
chain: ADEINEIREEQEQLAPFDPSKKKKKKKVVIQEPVEDLAESSQTEKSDSLPVNDGLESSFTGMKKKKKKPTESSLLNNESVDAGEDLDEIANDEQEGEEGIVLQQRYPWEGSERDYIYDELLGRVFNILRENNPELAGDRRRTVMRPPQVLREGTKKTVFVNFMDLCKTMHRQPDHVMQYLLAELGTSGSLDGQQRLVVKGRFAPKNFEGILRRYITDYVICLGCKSPDTILSKENRLFFLRCEKCGSQRSVAPIKTGFVARVSRRKT
B6: AtTIP3 (protein)
chain: METVVDKDVLKSSGAELLPDGRRGLRIHDWEIETLRGTILTSLAVEEWEKKLKTSHLPEMVFGENALVLKHLGSNTKIHFNAFDALAGWKQEGLPPVEVPAAAQWKFRSKPSQQVILDYDYTFTTPYCGSEVVEKDKETVEAKANPKGEATLQWENCEDQIDLAALSLKEPILFYDEVVLYEDELADNGVSLLTVKVRVMPSSWFLLLRFWLRVDGVLMRLRETRMHYRFGEDEAPTVLRENCWREATFQSLSAKGYPVDLAVWSDPSSISQRLPVIKHTTQKLKIPSKV
B7: AtTIP5 (protein)
chain: MASQTPNLECRMYEAKYPEVDMAVMIQVKNIADMGAYVSLLEYNNIEGMILFSELSRRRIRSVSSLIKVGRIEPVMVLRVDKEKGYIDLSKRRVSEEDIQTCEERYNKSKLVHSIMRHVAETLSIDLEDLYVNIGWPLYRRHGHAFEAFKILVTDPDSVLGPLTREIKEVGPDGQEVTKVVPAVTEEVKDALVKNIRRRMTPQPMKIRADIELKCFQFDGVVHIKEAMKNAEAAGNEDCPVKIKLVAPPLYVLTTQTLDKEQGIEILNKAIAACTETIETHKGKLVVKEGARAVSERDEKMLTEHMAKLRLDNEEMSGDEDSGDEEEDTGMGEVDLDAGAGIIE
B8: AtTIP6 (enzyme)
chain: MLAMEKEFDSKLVLQGNSSNGANVSRSKSFSFKAPQENFTSHDFEFGKIYGVGSYSKVVRAKKKETGTVYALKIMDKKFITKENKTAYVKLERIVLDQLEHPGIIKLYFTFQDTSSLYMALESCEGGELFDQITRKGRLSEDEARFYTAEVVDALEYIHSMGLIHRDIKPENLLLTSDGHIKIADFGSVKPMQDSQITVLPNAASDDKACTFVGTAAYVPPEVLNSSPATFGNDLWALGCTLYQMLSGTSPFKDASEWLIFQRIIARDIKFPNHFSEAARDLIDRLLDTEPSRRPGAGSEGYVALKRHPFFNGVDWKNLRSQTPPKLAPDPASQTASPERDDTHGSPWNLTHIGDSLATQNEGHSAPPTSSESSGSITRLASIDSFDSRWQQFLEPGESVLMISAVKKLQKITSKKVQLILTNKPKLIYVDPSKLVVKGNIIWSDNSNDLNVVVTSPSHFKICTPKKVLSFEDAKQRASVWKKAIETLQNR
B9: AtTIP8 (protein)
chain: MSTREENVYMAKLAEQAERYEEMVEFMEKVAKTVDVEELSVEERNLLSVAYKNVIGARRASWRIISSIEQKEESKGNEDHVAIIKDYRGKIESELSKICDGILNVLEAHLIPSASPAESKVFYLKMKGDYHRYLAEFKAGAERKEAAESTLVAYKSASDIATAELAPTHPIRLGLALNFSVFYYEILNSPDRACSLAKQAFDDAIAELDTLGEESYKDSTLIMQLLRDNLTLWTSDMTDEAGDEIKEASKPDGAE
B10: AtTIP9 (protein)
chain: MGGLAMEEMPLSVLFEQARKIHLAASESGVDQDVVKKGCEMFQKCEDMIGKLALFSSNETKEDISTNNLKYLLVPYYLAELTEKIIQEDRIQIVKASYAKLKEFFSFCEAMELVPDEELEASSRGGSGAPADRRALKIARFKRQKAAEAKLLEIKERKERRGRSTKASALSTPVESGEDDIPDDDSEEEREAWLSSINLAICKAIDLLEMLKREEEMLSAIKERQLKDGEGGFSRDALDDRTKKAETWHRDAAARIQYSKPAQPITCATFAQDVLEGRASVSQGHEHKNQPLIFGPASIVGGPLSTERERMIAQVFQPSHRMPTMCIEDAGLTEMNIMNDWQEQTKKAIEEATTSWYNDKPLRRKEEDEEDDDEDEEAVMKARAFDDWKDDNPRGAGNKKLTPCG

Biological target: AtTOR (target of rapamycin protein, Arabidopsis thaliana) (Arabidopsis thaliana) (UniProt Q9FR53)
Assay: yeast two-hybrid

Molecule | binding
AtTIP7 (from UniProt Q9M2Z2 1-317) | binds
AtTOR (target of rapamycin protein, Arabidopsis thaliana) (from UniProt Q9FR53 1-2481) (enzyme) | binds
B1 | binds
B2 | binds
B3 | binds
B4 | binds
B5 | binds
B6 | binds
B7 | binds
B8 | binds
B9 | binds
B10 | binds
